Measurements published in article PMC11589570, “Critical assessment of LC3/GABARAP ligands used for degrader development and ligandability of LC3/GABARAP binding pockets” (Nature Communications, 2024).
Where “and” joins values, the source holds several entries; their conditions need not be identical. Equal values may be shown once. Further values from the same series stand in other lists.

Tested on: RPE1 cells
Experiment: Cell growth assay (IncuCyte confluence over 72 h)
Assay type: cell-based
Conditions: listed as 10O5
In short: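 Phase confluence (% area covered by cells) imaged every 2 h for 72 h after compound addition; cells in DMEM/10% FBS, seeded 24 h before treatment. Controls were 0.1% DMSO, 250 nM Torin1 and 200 ng/mL Bafilomycin (final). Each point averages three wells.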

`O=C1Nc2ccc(I)cc2C1=Cc1cc(Br)c(O)c(Br)c1` [compound 4] was tested, and the RPE1 cell growth (100 nM, 12 h) was 31 and 19 and 23, the RPE1 cell growth (100 nM, 14 h) was 31 and 19 and 26 and the RPE1 cell growth (100 nM, 16 h) was 34 and 20 and 27. The RPE1 cell growth (100 nM, 18 h) was 37 and 21 and 27, the RPE1 cell growth (100 nM, 20 h) was 39 and 23 and 29 and the RPE1 cell growth (100 nM, 22 h) was 42 and 24 and 31. For the same compound, the RPE1 cell growth (100 nM, 24 h) was 43 and 26 and 33, the RPE1 cell growth (100 nM, 26 h) was 49 and 28 and 35 and the RPE1 cell growth (100 nM, 28 h) was 53 and 31 and 37. The RPE1 cell growth (100 nM, 32 h) was 62 and 38 and 41, the RPE1 cell growth (100 nM, 34 h) was 65 and 39 and 48 and the RPE1 cell growth (100 nM, 36 h) was 67 and 44 and 48. For the same compound, the RPE1 cell growth (100 nM, 38 h) was 72 and 49 and 51, the RPE1 cell growth (100 nM, 44 h) was 86 and 61 and the RPE1 cell growth (100 nM, 46 h) was 88 and 62 and 64. The RPE1 cell growth (100 nM, 48 h) was 92 and 64 and 72, the RPE1 cell growth (100 nM, 50 h) was 94 and 68 and 72 and the RPE1 cell growth (100 nM, 54 h) was 97 and 80 and 83. The RPE1 cell growth (100 nM, 58 h) was 99 and 87 and 88, the RPE1 cell growth (100 nM, 60 h) was 99 and 91 and 89 and the RPE1 cell growth (100 nM, 62 h) was 99 and 90 and 93. For the same compound, the RPE1 cell growth (100 nM, 64 h) was 100 and 94, the RPE1 cell growth (100 nM, 66 h) was 100 and 97 and 96 and the RPE1 cell growth (100 nM, 68 h) was 100 and 99 and 98. The RPE1 cell growth (100 nM, 70 h) was 100 and 98 and 99, the RPE1 cell growth (100 nM, 72 h) was 100 and 99 and the RPE1 cell growth (500 nM, 12 h) was 38 and 25 and 23. The RPE1 cell growth (500 nM, 14 h) was 40 and 24, the RPE1 cell growth (500 nM, 16 h) was 42 and 26 and the RPE1 cell growth (500 nM, 18 h) was 44 and 28 and 27. The RPE1 cell growth (500 nM, 20 h) was 45 and 29 and 28, the RPE1 cell growth (500 nM, 22 h) was 46 and 35 and 30 and the RPE1 cell growth (500 nM, 24 h) was 51 and 34 and 33. The RPE1 cell growth (500 nM, 26 h) was 55 and 36 and 35, the RPE1 cell growth (500 nM, 28 h) was 60 and 41 and 37 and the RPE1 cell growth (500 nM, 32 h) was 67 and 46 and 43. The RPE1 cell growth (500 nM, 34 h) was 71 and 48, the RPE1 cell growth (500 nM, 36 h) was 74 and 53 and 50 and the RPE1 cell growth (500 nM, 38 h) was 78 and 55 and 52. For the same compound, the RPE1 cell growth (500 nM, 44 h) was 88 and 68 and 64, the RPE1 cell growth (500 nM, 46 h) was 90 and 71 and 68 and the RPE1 cell growth (500 nM, 48 h) was 92 and 76 and 74. The RPE1 cell growth (500 nM, 50 h) was 95 and 78 and 76, the RPE1 cell growth (500 nM, 54 h) was 97 and 85 and the RPE1 cell growth (500 nM, 58 h) was 98 and 91. The RPE1 cell growth (500 nM, 60 h) was 99 and 94 and 92, the RPE1 cell growth (500 nM, 62 h) was 99 and 95 and the RPE1 cell growth (500 nM, 64 h) was 99 and 97 and 96. For the same compound, the RPE1 cell growth (500 nM, 66 h) was 100 and 98, the RPE1 cell growth (500 nM, 68 h) was 99 and 98 and the RPE1 cell growth (500 nM, 70 h) was 100 and 99. The RPE1 cell growth (500 nM, 72 h) was 100 and 99, the RPE1 cell growth (1 uM, 12 h) was 28 and 23 and the RPE1 cell growth (1 uM, 14 h) was 25 and 30 and 24. The RPE1 cell growth (1 uM, 16 h) was 26 and 32 and 27, the RPE1 cell growth (1 uM, 18 h) was 28 and 34 and the RPE1 cell growth (1 uM, 20 h) was 30 and 33. For the same compound, the RPE1 cell growth (1 uM, 22 h) was 30 and 38 and 33, the RPE1 cell growth (1 uM, 24 h) was 33 and 42 and 36 and the RPE1 cell growth (1 uM, 26 h) was 35 and 42 and 37. The RPE1 cell growth (1 uM, 28 h) was 35 and 46 and 39, the RPE1 cell growth (1 uM, 32 h) was 43 and 53 and 48 and the RPE1 cell growth (1 uM, 34 h) was 45 and 57 and 48. The RPE1 cell growth (1 uM, 36 h) was 50 and 58 and 53, the RPE1 cell growth (1 uM, 38 h) was 53 and 65 and 55 and the RPE1 cell growth (1 uM, 42 h) was 60 and 71 and 61. The RPE1 cell growth (1 uM, 44 h) was 63 and 78 and 69, the RPE1 cell growth (1 uM, 46 h) was 68 and 79 and 70 and the RPE1 cell growth (1 uM, 48 h) was 73 and 85. For the same compound, the RPE1 cell growth (1 uM, 50 h) was 75 and 88 and 77, the RPE1 cell growth (1 uM, 54 h) was 83 and 93 and 85 and the RPE1 cell growth (1 uM, 58 h) was 89 and 97 and 90. The RPE1 cell growth (1 uM, 60 h) was 91 and 98 and 92, the RPE1 cell growth (1 uM, 62 h) was 92 and 99 and 95 and the RPE1 cell growth (1 uM, 64 h) was 96 and 99. The RPE1 cell growth (1 uM, 66 h) was 97 and 100, the RPE1 cell growth (1 uM, 68 h) was 99 and 100 and 98 and the RPE1 cell growth (1 uM, 70 h) was 99 and 100. The RPE1 cell growth (1 uM, 72 h) was 100 and 99, the RPE1 cell growth (3 uM, 14 h) was 32 and 25 and 24 and the RPE1 cell growth (3 uM, 16 h) was 34 and 28 and 25. The RPE1 cell growth (3 uM, 18 h) was 35 and 29 and 26, the RPE1 cell growth (3 uM, 20 h) was 35 and 30 and 28 and the RPE1 cell growth (3 uM, 22 h) was 40 and 34 and 31. The RPE1 cell growth (3 uM, 24 h) was 42 and 36 and 32, the RPE1 cell growth (3 uM, 26 h) was 45 and 41 and 35 and the RPE1 cell growth (3 uM, 28 h) was 49 and 39 and 36. The RPE1 cell growth (3 uM, 32 h) was 56 and 47 and 44, the RPE1 cell growth (3 uM, 34 h) was 59 and 49 and 46 and the RPE1 cell growth (3 uM, 36 h) was 62 and 51 and 50. The RPE1 cell growth (3 uM, 38 h) was 66 and 56 and 52, the RPE1 cell growth (3 uM, 42 h) was 73 and 60 and 58 and the RPE1 cell growth (3 uM, 44 h) was 76 and 68 and 62. The RPE1 cell growth (3 uM, 46 h) was 80 and 70 and 66, the RPE1 cell growth (3 uM, 48 h) was 84 and 73 and 70 and the RPE1 cell growth (3 uM, 50 h) was 87 and 77 and 73. For the same compound, the RPE1 cell growth (3 uM, 54 h) was 90 and 85 and 81, the RPE1 cell growth (3 uM, 56 h) was 93 and 88 and 84 and the RPE1 cell growth (3 uM, 58 h) was 94 and 90 and 87. For the same compound, the RPE1 cell growth (3 uM, 60 h) was 95 and 93 and 89, the RPE1 cell growth (3 uM, 62 h) was 97 and 94 and 91 and the RPE1 cell growth (3 uM, 64 h) was 97 and 94. The RPE1 cell growth (3 uM, 66 h) was 98 and 95, the RPE1 cell growth (3 uM, 68 h) was 98 and 99 and 96 and the RPE1 cell growth (3 uM, 70 h) was 99 and 98. For the same compound, the RPE1 cell growth (3 uM, 72 h) was 99 and 100, the RPE1 cell growth (5 uM, 12 h) was 32 and 21 and 25 and the RPE1 cell growth (5 uM, 14 h) was 35 and 21 and 27. The RPE1 cell growth (5 uM, 16 h) was 37 and 23 and 28, the RPE1 cell growth (5 uM, 18 h) was 37 and 23 and 29 and the RPE1 cell growth (5 uM, 20 h) was 38 and 25 and 32. The RPE1 cell growth (5 uM, 22 h) was 39 and 29 and 33, the RPE1 cell growth (5 uM, 24 h) was 44 and 30 and 35 and the RPE1 cell growth (5 uM, 26 h) was 47 and 32 and 37. For the same compound, the RPE1 cell growth (5 uM, 28 h) was 50 and 33 and 39, the RPE1 cell growth (5 uM, 30 h) was 54 and 36 and 42 and the RPE1 cell growth (5 uM, 32 h) was 55 and 40 and 45. For the same compound, the RPE1 cell growth (5 uM, 34 h) was 61 and 40 and 48, the RPE1 cell growth (5 uM, 36 h) was 64 and 44 and 51 and the RPE1 cell growth (5 uM, 38 h) was 67 and 47 and 54. The RPE1 cell growth (5 uM, 40 h) was 47 and 51 and 57, the RPE1 cell growth (5 uM, 42 h) was 72 and 52 and 60 and the RPE1 cell growth (5 uM, 44 h) was 78 and 57 and 64. For the same compound, the RPE1 cell growth (5 uM, 46 h) was 80 and 60 and 67, the RPE1 cell growth (5 uM, 48 h) was 84 and 65 and 71 and the RPE1 cell growth (5 uM, 50 h) was 87 and 68 and 73. The RPE1 cell growth (5 uM, 52 h) was 89 and 76, the RPE1 cell growth (5 uM, 54 h) was 92 and 76 and 81 and the RPE1 cell growth (5 uM, 56 h) was 93 and 78 and 83. For the same compound, the RPE1 cell growth (5 uM, 58 h) was 95 and 82 and 87, the RPE1 cell growth (5 uM, 60 h) was 97 and 87 and 89 and the RPE1 cell growth (5 uM, 62 h) was 98 and 89 and 92. For the same compound, the RPE1 cell growth (5 uM, 64 h) was 98 and 92 and 93, the RPE1 cell growth (5 uM, 66 h) was 99 and 94 and 95 and the RPE1 cell growth (5 uM, 68 h) was 99 and 96. The RPE1 cell growth (5 uM, 70 h) was 100 and 97, the RPE1 cell growth (5 uM, 72 h) was 100 and 98 and the RPE1 cell growth (10 uM, 12 h) was 35 and 30 and 26. For the same compound, the RPE1 cell growth (10 uM, 14 h) was 39 and 30 and 28, the RPE1 cell growth (10 uM, 16 h) was 39 and 34 and 29 and the RPE1 cell growth (10 uM, 18 h) was 41 and 33 and 31. The RPE1 cell growth (10 uM, 20 h) was 42 and 36 and 33, the RPE1 cell growth (10 uM, 22 h) was 43 and 38 and 35 and the RPE1 cell growth (10 uM, 24 h) was 49 and 41 and 35. The RPE1 cell growth (10 uM, 26 h) was 52 and 41 and 38, the RPE1 cell growth (10 uM, 28 h) was 52 and 44 and 39 and the RPE1 cell growth (10 uM, 30 h) was 56 and 47 and 42. The RPE1 cell growth (10 uM, 32 h) was 58 and 50 and 44, the RPE1 cell growth (10 uM, 34 h) was 60 and 51 and 47 and the RPE1 cell growth (10 uM, 36 h) was 63 and 55 and 49. The RPE1 cell growth (10 uM, 38 h) was 65 and 57 and 51, the RPE1 cell growth (10 uM, 40 h) was 50 and 61 and 53 and the RPE1 cell growth (10 uM, 42 h) was 71 and 61 and 56. For the same compound, the RPE1 cell growth (10 uM, 44 h) was 74 and 65 and 59, the RPE1 cell growth (10 uM, 46 h) was 76 and 68 and 61 and the RPE1 cell growth (10 uM, 48 h) was 80 and 73 and 64. For the same compound, the RPE1 cell growth (10 uM, 50 h) was 83 and 75 and 65, the RPE1 cell growth (10 uM, 52 h) was 84 and 79 and 67 and the RPE1 cell growth (10 uM, 54 h) was 87 and 80 and 70. The RPE1 cell growth (10 uM, 56 h) was 88 and 84 and 72, the RPE1 cell growth (10 uM, 58 h) was 91 and 86 and 75 and the RPE1 cell growth (10 uM, 60 h) was 92 and 89 and 77. For the same compound, the RPE1 cell growth (10 uM, 62 h) was 94 and 90 and 79, the RPE1 cell growth (10 uM, 64 h) was 95 and 92 and 82 and the RPE1 cell growth (10 uM, 66 h) was 97 and 93 and 83. For the same compound, the RPE1 cell growth (10 uM, 68 h) was 97 and 95 and 85, the RPE1 cell growth (10 uM, 70 h) was 98 and 96 and 87 and the RPE1 cell growth (10 uM, 72 h) was 99 and 97 and 88.
